Binding data for 1 substance are collected here from paper doi:10.1101/499962.

By UniProt entry, the sequences of proteins in these tests, tags left out.
UniProt P69441, whole entry: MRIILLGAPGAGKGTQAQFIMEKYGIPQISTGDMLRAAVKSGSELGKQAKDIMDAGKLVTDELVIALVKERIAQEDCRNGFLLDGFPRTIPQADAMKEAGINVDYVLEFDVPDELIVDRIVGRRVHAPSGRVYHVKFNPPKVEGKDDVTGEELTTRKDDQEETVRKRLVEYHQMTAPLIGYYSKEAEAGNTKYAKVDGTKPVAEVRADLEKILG

These are yes or no findings as the source states them, for the method shown.

The target in the test is E. coli adenylate kinase (Adk), wild type (E. coli) (UniProt P69441). In words: SEC. On the technique in general: In gel filtration, larger molecules generally elute earlier.

Take “E. coli adenylate kinase (Adk), wild type (from UniProt P69441 1-214) (enzyme)”: the binding result is recorded as “no binding”.
